From PMC11994309
No constants are given. Whether binding was seen depends on the method and setting. In cells and extracts the contact can be indirect. Some entries that bind do so weakly or less than the wild type. Tags and fused reporters may be left off the sequences shown.

How the values were obtained:
[1] = biological target: T1, beta-1,4-galactosyltransferase 1 (B4GALT1) fused with a NanoBiT fragment (human) (UniProt P15291); assay: split reporter; NanoBiT in living HEK293T GALE KO cells (UDP-Gal almost absent); ratio to a HaloTag negative control, threshold 10-fold
T1 sequence: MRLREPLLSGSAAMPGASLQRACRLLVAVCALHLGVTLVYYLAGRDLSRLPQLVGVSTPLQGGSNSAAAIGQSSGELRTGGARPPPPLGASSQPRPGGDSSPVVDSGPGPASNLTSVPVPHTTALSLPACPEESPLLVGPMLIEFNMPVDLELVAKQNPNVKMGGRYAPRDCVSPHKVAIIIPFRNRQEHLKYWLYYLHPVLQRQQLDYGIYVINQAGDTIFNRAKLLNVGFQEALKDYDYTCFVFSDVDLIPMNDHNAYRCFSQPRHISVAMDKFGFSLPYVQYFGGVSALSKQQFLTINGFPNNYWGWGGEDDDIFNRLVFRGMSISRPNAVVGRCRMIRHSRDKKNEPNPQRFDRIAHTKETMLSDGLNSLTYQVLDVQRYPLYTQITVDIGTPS

[2] = biological target: T1, beta-1,4-galactosyltransferase 1 (B4GALT1) fused with a NanoBiT fragment (human); assay: split reporter; NanoBiT in living HEK293T cells, WT control and GALT KO; 25 ng of each plasmid per well, luminescence 20-24 h after transfection; ratio to a HaloTag negative control, threshold 10-fold
[3] = biological target: SLC35A2 (UDP-Gal transporter) fused with a NanoBiT fragment (human) (UniProt P78381); assay: as above
[4] = biological target: T1, beta-1,4-galactosyltransferase 1 (B4GALT1) fused with a NanoBiT fragment (human); assay: split reporter; NanoBiT in living HEK293T GALE&GALT KO cells (UDP-Gal below detection); ratio to a HaloTag negative control, threshold 10-fold

B1: SLC35A2 (UDP-Gal transporter) fused with a NanoBiT fragment (protein, UniProt P78381-1 1-396)
chain: MAAVGAGGSTAAPGPGAVSAGALEPGTASAAHRRLKYISLAVLVVQNASLILSIRYARTLPGDRFFATTAVVMAEVLKGLTCLLLLFAQKRGNVKHLVLFLHEAVLVQYVDTLKLAVPSLIYTLQNNLQYVAISNLPAATFQVTYQLKILTTALFSVLMLNRSLSRLQWASLLLLFTGVAIVQAQQAGGGGPRPLDQNPGAGLAAVVASCLSSGFAGVYFEKILKGSSGSVWLRNLQLGLFGTALGLVGLWWAEGTAVATRGFFFGYTPAVWGVVLNQAFGGLLVAVVVKYADNILKGFATSLSIVLSTVASIRLFGFHVDPLFALGAGLVIGAVYLYSLPRGAAKAIASASASASGPCVHQQPPGQPPPPQLSSHRGDLITEPFLPKLLTKVKGS
binding [1]: no binding (condition: in GALE KO cells) | binding [2]: binds | binding [3]: binds | binding [4]: no binding (condition: in GALE&GALT KO cells)
